Measurements as given in publication PMC11750091.

T1: PoAce1 fused with the TAP tag (HA-FLAG) at the C-terminus (Penicillium oxalicum) (UniProt S8AYJ0)
T1 sequence: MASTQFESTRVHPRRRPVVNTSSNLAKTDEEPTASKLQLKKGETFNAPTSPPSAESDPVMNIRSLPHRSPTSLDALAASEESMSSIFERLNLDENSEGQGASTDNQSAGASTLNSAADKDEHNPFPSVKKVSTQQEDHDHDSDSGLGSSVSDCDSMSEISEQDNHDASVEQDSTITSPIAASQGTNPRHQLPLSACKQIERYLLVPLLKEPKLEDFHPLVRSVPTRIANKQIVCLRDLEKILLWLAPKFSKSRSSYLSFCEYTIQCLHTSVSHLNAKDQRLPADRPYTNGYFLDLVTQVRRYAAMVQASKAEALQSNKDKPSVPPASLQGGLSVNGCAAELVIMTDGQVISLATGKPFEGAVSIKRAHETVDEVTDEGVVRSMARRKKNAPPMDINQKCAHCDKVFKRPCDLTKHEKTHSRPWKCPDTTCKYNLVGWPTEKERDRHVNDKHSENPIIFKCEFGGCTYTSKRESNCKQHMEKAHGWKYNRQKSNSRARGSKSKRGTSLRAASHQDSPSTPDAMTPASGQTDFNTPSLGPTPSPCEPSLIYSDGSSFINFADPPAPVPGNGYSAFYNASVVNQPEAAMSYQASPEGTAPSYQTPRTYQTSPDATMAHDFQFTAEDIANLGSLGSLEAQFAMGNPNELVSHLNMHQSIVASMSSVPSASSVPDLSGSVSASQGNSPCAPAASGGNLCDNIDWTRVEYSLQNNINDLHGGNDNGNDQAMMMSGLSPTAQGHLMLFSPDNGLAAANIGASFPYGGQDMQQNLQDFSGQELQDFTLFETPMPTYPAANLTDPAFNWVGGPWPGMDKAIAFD

T2: PoFbx23 fused with the TAP tag (FLAG-HA) (Penicillium oxalicum) (UniProt S7ZS07)
T2 sequence: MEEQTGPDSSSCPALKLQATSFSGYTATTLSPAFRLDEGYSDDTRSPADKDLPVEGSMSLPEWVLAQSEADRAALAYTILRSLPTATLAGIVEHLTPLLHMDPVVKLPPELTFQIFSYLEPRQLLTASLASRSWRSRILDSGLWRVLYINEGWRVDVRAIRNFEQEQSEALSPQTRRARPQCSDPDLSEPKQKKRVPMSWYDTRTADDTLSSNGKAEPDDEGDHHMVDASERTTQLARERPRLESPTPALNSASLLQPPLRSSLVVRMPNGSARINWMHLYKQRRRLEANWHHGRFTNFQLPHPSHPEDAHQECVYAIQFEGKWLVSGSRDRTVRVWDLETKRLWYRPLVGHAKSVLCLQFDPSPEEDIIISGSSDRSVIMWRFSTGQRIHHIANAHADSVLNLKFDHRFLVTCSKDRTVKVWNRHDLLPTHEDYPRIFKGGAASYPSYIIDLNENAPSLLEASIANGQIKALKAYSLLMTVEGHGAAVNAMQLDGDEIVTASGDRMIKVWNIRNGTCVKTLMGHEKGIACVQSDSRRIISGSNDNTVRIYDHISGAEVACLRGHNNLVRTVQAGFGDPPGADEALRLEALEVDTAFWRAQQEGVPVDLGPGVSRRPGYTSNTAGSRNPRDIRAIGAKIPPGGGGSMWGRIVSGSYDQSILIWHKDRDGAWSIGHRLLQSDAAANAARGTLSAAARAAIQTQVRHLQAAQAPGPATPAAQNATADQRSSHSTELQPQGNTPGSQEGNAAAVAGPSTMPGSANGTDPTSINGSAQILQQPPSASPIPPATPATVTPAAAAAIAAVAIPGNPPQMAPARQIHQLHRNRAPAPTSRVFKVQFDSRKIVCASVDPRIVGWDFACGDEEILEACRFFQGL

B1: PDE_04678 (Zn2Cys6 class fungal-specific transcription factor) (protein, UniProt S8AUB2 1-766)
chain: MTTPSPQRPAAPSPSEPPKKRAKYTQIACNECKRRKIKCTGGSPCSRCSRGKVFCSYPSDRTPIHETEFKDARVGSRFESIDQQLEEMQREMRTMSARLRQLEASSPNSIMPAKTNTQKELNRILNAPKSPTYVGPTSVEFGLRHNQPSSRLLASAHDRDESETAPLSNSTERSPGPLPTGPNSSSRAHLGFEEALRLLQVYEDLVGAMYPCVDMDSVRVYVQDYYGSHESITTSVADCQGSTPADQDWFFARDIQVLKLLLATALLAESHGRSELAAALADNVEDRFAARYKVAEVDMKEILIMTLLSIFHSYRDDEVISWRLIRNATSACMELGLHRQETWHRNGGVFPGELAWTWANRLFWCIYVLDRKWSFGSGLPFGMQDTDIDTDIPEPGESTPYLNCLISHARLSTKIWGLIMEWPRYSPSTTAIKCTELDDEVQQWIWSIPHELRFLPNLSFDSHVPTDRSRHSDRLMMLQVLLALQGNQLRILVYRQNLQSKERIAGDLAGASIAVETAKSTIHMLEYFSSVTNIYFDRPEPFNYFLISALAALLLAVLHAPSRFSHVCRPEFYTAINLVRRSATRARTSRRLQKLLRRLEQIQLHKGGDDHQAVTQSRSKDFVSRNSNGCTVEQRPSGPVAVTGLSAPHGSWEPTPESARTSTSVEHPTSNYERPMTSWNTSSGMDNDCSNVCENLSSFFKNAGDLLFDIDPTTSMELPSSSDASLARGVDVGFFSVPVNLQSPSQAFANFEDDNEELTRAMAGLL
B2: PDE_04990 (Zn2Cys6 class fungal-specific transcription factor) (protein, UniProt S7ZH90 1-734)
chain: MREKLVLEKSRVPRLRPRDSSRKVGLPRVDRTLEIHGTHIKKTIRDIRLDTKSLARLADTLDRDGDGARVTTSDTSTEIQGLVEMGDETCTMDPVDDQTTHYSGEFSYWNFSMRLKQQIEQMGGLESQSHDSDRAWDFPRAHQLRPVGSHLSAAMSCSPPRPVGEFLARVFFKYVETHYYFIEKTWFIDKMNLLYEDPSRFATKGGEVIISILLTVFAIGSQYAHLESTASGLRDQQEQSFSEEDIGATFYQQAIRLLPEIIELSSLESVQACLLFGYYALPVDTSGLGYVYVNLAIRLGMQNGMHRKCATGAFNATMVETRNRVWWTAYLLERKISIFHGRPLSVLQKDVDASLPVFREGMESEDSRTSVARAEASVQLIHYLEQLFTDVNALRGCQRNQIPKIIAHILASKEALKTWWDSLPKNLTSSALQPLPQLRSAMHFQLEHCLVRMFIGRPFLLRQESSDSTNTSPAESVITSGDKRHSSNRTRLSHKDLIDDCIESATEALGILQGLRDNTGLARASYVEYSSCRASLLVLIAYSIQQFSERYRNLLYKGLDMIREMSAAGESARSEVFLIETLERALARLHARIQRAEQGDSSQPEPSPSDYEAFKHWGAMMRDGVISTDTDSDRAPVSLGSAGSAGPLPEHSRVINQSFDQPWAFNPSQNTLSVSDQDMGMLCALDPLIDIPFFGAENSSPSAAWPMWTEAQVLEQFLSGSRLDSISEAQASHN
B3: PDE_09448 (Zn2Cys6 class fungal-specific transcription factor) (protein, UniProt S7ZVN6 1-924)
chain: MSGYHAGPFGHSGDNPYQLPPPRTPANLQYGPDPFLRQRDSERSDLVREAVPADAASVRQPNEPLPSVRSLLTPTTGPGSPPAFRQPRYGIQTPAESHRDMGYPFRPQETVFPPLQMGTLDRRRSESLPHSQPTSLPPLSHVAMGGSAEVDHHHHTTRSDPSTAKSSHAHLSPRNNSHSELMPSAEISSPESVTRANAPAVLPHVVDERYIDGELCFVYADGSHQPKIVDGKPVNPNWGVTKAGKPRKRLAQACLTCREKKIKCQPNRPKCDQCQKSGRECRFENALRGNRPRGSHSVGPSGNATSEIIGAVYDITRASDSGASLPGSGHSPISESVGLTPSGIEITHDPMLDAERAYRQRAYRIPRPFEEDSHIRHTTYPETNRLPEYQEILGEMRDTGPDDPLLASWNVDPFDHDPEMTLHYVDTFFTYVNDGLYHIFPHARFILWLKSCNTKSQEDKMVLYSMMALGSIFSDRPDKVSALRRYSRIARFAIQRSQHNLCLQLVQSHLLMGLLYYAAGSLVAAWDAVGSAGRAVSGLRFNIESGGVIVGQNQPCEYGLHPQALIECRRRTFWVAFILDRISSLFSVPSTTIPSESALIRLPCREDIYEAQQYATAPYFQNILNQASRFSEDDRHSLSPMAFVIQILSIWGDVSFQTLRLSHAPTECWLQLAEDFHTEIIQRTDDWINQLPEHLTFSVANMERASQAKKVDAFVGIHMFYHATLMKLYRHARYQSLRPEALARHIHRARYHAVEILRIALAVVQYAHDVQASRSTSDSSSAHGTLLGPFLAHVVVSAVDVLSAGGMVTELPDCISFTNGAYGMVQLLGHHWESSICLANLIKKRLDAMIDCANDRSRNQEKICFAVDGPSLETRIPTGTPSPPQGTLDEDLFYGALPRDVLLKAMRGDDTLSADKNIAWFNDQ
B4: E3 ubiquitin-protein ligase Bre1 homolog (PDE_03581) (protein, UniProt S7ZDA7 1-705)
chain: MEDRKRPAADSNESAPPSKKQATTVNGTSKPHPDADMPWRDDLERFQKDAILRQMQEYKREKAGLESQLNRMSKAAAHHDDHLRAIDAWFRQLVDEVKILLGTSHEQTKEMTFKSSLQFEDVSEFEAHLKARSDDIREIISLFQSKMDSLSPDVTSLQNELAKKLAEEKITIAKLEQTIAEKQQLEESLEAASLRYMVAEKKLDRARSLTVAKLEKQYLLGGKRPGSEGAGARRDEGSPANGGPSGSERNAELEDSYNKLNVVSEKQKEQLQKLEAENANLLSQITDIKVKSSKFTDDDYAHTDLFKQLRSQHDDVVKRINHLEATNTQLREEAEKYRSERNAYKLQLEEESNAAIAEKEAALMRAETDLARIRNARDELFADQQIRKTTQDQEKLTGAKLQELADAREARIAALESEVERLRVQTGESKTNSDIDKIPVEELRTKYASLERQYSMLNTELSSMQTAYKKFSTLASQKVTDFKALEDKVARLAAEKSKADQKYFAAMKSKEARDAEVRTLRMQNSKTSDIVSQLKESEAATRSLLANMDKQVNEMKEALNSASEKQRTSQQQLTESNIVVEGLKSQVTELKNLSTSKDATLSSTSAALRQAETEIVGLKQSLADTKKSLDNWKNKSLGNNSSEYEMLRTLALCTVCRRNFKNTVIKTCGHVFCKDCVEERLTSRSRKCPNCNRSFGSNDHMHITL

Legend:
[1] = target: T1, PoAce1 fused with the TAP tag (HA-FLAG) at the C-terminus (Penicillium oxalicum); test: affinity purification with mass spectrometry; TAP-MS with PoAce1-HA-FLAG as bait from mycelia grown in VMMG; anti-FLAG M2 gel, 3xFLAG peptide elution, then anti-HA resin, 8 M urea elution; LC-MS/MS; WT 114-2 as control; biological triplicates
[2] = target: T2, PoFbx23 fused with the TAP tag (FLAG-HA) (Penicillium oxalicum); test: affinity purification with mass spectrometry; TAP-MS with PoFbx23-HA-FLAG as bait; two-step tandem purification, LC-MS/MS; WT with native PoFbx23 as control; two Fbx23-TAP samples

| Binder | binding [1] | binding [2] |
| --- | --- | --- |
| B1 | binds | binds |
| B2 | – | binds |
| B3 | – | binds |
| B4 | – | binds |

No constants are given. Whether binding was seen depends on the method and setting. In cells and extracts the contact can be indirect. Here binding means that the protein was enriched with, or labelled near, the bait; the list need not be complete. Where a sequence is shown, tags or fusion partners need not be part of it.
